{
  "source": "PubChem BioAssay AID493014",
  "about": "(National Center for Advancing Translational Sciences (NCATS), 2011)",
  "note": "Several values for one entry are separate records, joined by “and”; a condition that tells them apart may be missing. Equal entries are not always repeated. About 170 (0.05%) of roughly 340,000 compounds were called active. The shares of active, inactive and inconclusive entries below differ from those in the screen. The call rests on the fitted dose curve; in most records, active means well fitted inhibition curve with a large enough effect in the signal ratio, with a control signal flat (not every such curve was filed as active); inconclusive means small, poorly fitted or top-dose-only effect, or effect the other way, or a change in a side signal; inactive means flat fitted curve, though single readings scatter; the % refers to the signal ratio. Potencies beside an inconclusive call are fits to weak or partial responses and may not hold up. Potency means the concentration at half of the fitted maximal effect.",
  "data": [
    {"assay": "qHTS Assay to Find Inhibitors of Chronic Active B-Cell Receptor Signaling;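 on activity change, negative = inhibition: plate controls were basal doxycycline-induced cells for no effect and cells given 10 µM MG132 for full effect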", "settings": "ABC-DLBCL IkBa-CBG/CBR reporter, luminescence ratio (green luciferase fused to IkBa over red control in TMD8 lymphoma cells), 4 h; activity change, negative = inhibition: at 46.1 µM (top of the series) unless noted", "in_short": "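Concentration-response series (up to 46 uM) were applied to TMD8 dual-reporter cells for 4 h at 37C with doxycycline. Green/red ratio, after filter-overlap correction, defined %Activity; red signal alone was normalised to basal cells and zero luminescence.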", "values": [
      {"smiles": "O=C(Cc1cccs1)Nc1ccc2c(c1)C(=O)OC2", "activity change, negative = inhibition": "inconclusive: -20.8%"},
      {"smiles": "COc1ccccc1CNC(=O)CCS(=O)(=O)c1ccc2c(c1)CCCN2C(C)=O", "activity change, negative = inhibition": "inconclusive: 0.668%"},
      {"smiles": "CC1CCc2nn(CC(=O)Nc3c(F)cc(F)cc3Br)cc2C1", "note": "(centres undefined)", "activity change, negative = inhibition": "inconclusive: 17.5%"},
      {"smiles": "Cc1cc(C(=O)N/N=C/c2cccc([N+](=O)[O-])c2)c(C)o1", "Potency": "inconclusive: 20 µM [falling, partial curve, poor fit]"},
      {"smiles": "Cc1cc(C)cc(-n2nnc(C(=O)NCc3ccc4c(c3)OCO4)c2N)c1", "Potency": "inconclusive: 32.6 µM [falling, single point]"},
      {"smiles": "CC(C)c1ccc(NC(=O)c2ccc(NS(C)(=O)=O)cc2)cc1", "activity change, negative = inhibition": "inconclusive: -9.22%"},
      {"smiles": "CC1(C(=O)N/N=C/c2cc3c(cc2Br)OCO3)CC1(Br)Br", "note": "(centres undefined)", "activity change, negative = inhibition": "inconclusive: 1.77%"},
      {"smiles": "Cc1sc2nc(C(C)Sc3nnc(C)n3-c3ccccc3)[nH]c(=O)c2c1C", "note": "(centres undefined)", "activity change, negative = inhibition": "inconclusive: 18.9%"},
      {"smiles": "COc1ccc(N(C(=O)c2ccn[nH]2)C(C(=O)NC2CCCC2)c2ccc(F)cc2)cc1", "note": "(centres undefined)", "activity change, negative = inhibition": "inconclusive: -7.18%"},
      {"smiles": "Cc1cc(N2CCN(c3ccccn3)CC2)n2c(nc3ccccc32)c1C#N", "activity change, negative = inhibition": "inconclusive: 2.84%"},
      {"smiles": "O=C(O)CCCCCn1c(SCC(=O)c2ccc(O)c(O)c2)nc2ccsc2c1=O", "activity change, negative = inhibition": "inactive: -2.18%"},
      {"smiles": "CCOC(=O)N/N=C/c1ccc(N(CC)CC)cc1O", "activity change, negative = inhibition": "inconclusive: 0.609%"},
      {"smiles": "CCc1sc(C(=O)NCc2ccccc2)cc1C", "activity change, negative = inhibition": "inactive: -2.16%"},
      {"smiles": "CCC(C)c1ccccc1OCC(=O)NN1C(=O)c2ccccc2C1=O", "note": "(centres undefined)", "Potency": "inconclusive: 35.5 µM [falling, single point]"},
      {"smiles": "O=C(C#Cc1ccccc1)NCc1ccccc1F", "activity change, negative = inhibition": "inconclusive: 1.04%"},
      {"smiles": "O=C(NC1=C(Nc2ccc(Cl)cc2)C(=O)c2ccccc2C1=O)c1ccccc1", "activity change, negative = inhibition": "inconclusive: 2.69%"},
      {"smiles": "C[C@H]1CN([C@@H](C)CO)C(=O)c2cc(NC(=O)C3CCCCC3)ccc2O[C@H]1CN(C)C(=O)Nc1ccc2c(c1)OCO2", "activity change, negative = inhibition": "inconclusive: -1.03%"},
      {"smiles": "CC(C)N(C(=O)[C@H]1C[C@H](CC(=O)NC(C)(C)C)C(=O)N2CCc3c([nH]c4ccc(Cl)cc34)[C@]12C)C(C)C", "Potency": "inconclusive: 20.6 µM [falling, single point]"},
      {"smiles": "Cc1ccc(-n2c(SCC(=O)N/N=C/c3ccccc3OCC(=O)O)nc3ccccc3c2=O)cc1", "activity change, negative = inhibition": "inactive: -5.86%"},
      {"smiles": "O=C(c1cnccn1)N1CCN(S(=O)(=O)c2ccc3ccccc3c2)CC1", "Potency": "inconclusive: 18.4 µM [falling, single point]"},
      {"smiles": "Cc1ccc(NC(=S)NC(=O)C2CC2)cc1Cl", "Potency": "inconclusive: 25.1 µM [cytotoxic, single point]"},
      {"smiles": "Cc1ccc(S(=O)(=O)n2nc(OC(=O)c3cccs3)cc2N)cc1", "Potency": "inconclusive: 15.8 µM [falling, partial curve, poor fit]"},
      {"smiles": "COc1ccc2oc(=O)c(C(=O)O)cc2c1", "activity change, negative = inhibition": "inconclusive: 16.1%"},
      {"smiles": "Cc1cc(C)c(/C=C(\\C#N)C(N)=S)c(C)c1", "activity change, negative = inhibition": "inconclusive: -6.79%"},
      {"smiles": "Cc1cccc(-c2nnc(-c3ccccc3)o2)c1", "activity change, negative = inhibition": "inactive: -0.993%"},
      {"smiles": "CCCc1nnc(NC(=O)CCC(=O)NCCc2ccc(OC)c(OC)c2)s1", "activity change, negative = inhibition": "inconclusive: -7.3%"},
      {"smiles": "Cc1cc(OCC(=O)N(Cc2cccs2)C2CCS(=O)(=O)C2)ccc1Cl", "note": "(centres undefined)", "Potency": "inconclusive: 20 µM [falling, partial curve]"},
      {"smiles": "CNc1nc(N)nc(-c2cc(Cl)ccc2OC)n1", "activity change, negative = inhibition": "inactive: -0.255%"},
      {"smiles": "CCOC(=O)Cc1csc(NC(=O)c2csc3c2CCCC3)n1", "Potency": "inconclusive: 8.91 µM [falling, partial curve]"},
      {"smiles": "CCC1CN(C(=O)N2CCC(C(=O)NCCc3ccc(OC)cc3OC)CC2)c2ccccc2O1", "note": "(centres undefined)", "activity change, negative = inhibition": "inactive: 0.0475%"},
      {"smiles": "CC1=C(C)C(=O)C(CCCCC#CCCCC#CCO)=C(C)C1=O", "Potency": "inconclusive: 29.1 µM [falling, partial curve, poor fit]"},
      {"smiles": "Cc1ccc(-c2c[n+](Cc3cccc(Cl)c3)c3n2CCC3)cc1", "activity change, negative = inhibition": "inactive: 2%"},
      {"smiles": "O=C1NC(=Nc2ccccc2)S/C1=C\\c1ccccc1", "activity change, negative = inhibition": "inconclusive: -3.97%"},
      {"smiles": "Cc1csc(NC(=O)c2oc3ccccc3c2C)n1", "activity change, negative = inhibition": "inconclusive: -0.888%"},
      {"smiles": "Cc1cc(C(=O)NCC2CCCCC2)ccc1[N+](=O)[O-]", "activity change, negative = inhibition": "inconclusive: 0.518%"},
      {"smiles": "COc1cccc(N2CCN(C(=O)c3ccc(CSc4nc5ccncc5[nH]4)cc3)CC2)c1", "Potency": "inconclusive: 29.1 µM [falling, single point]"},
      {"smiles": "CC(C)c1ccc(NC(=O)N2CCCC2C(=O)Nc2ccc(-n3cnnn3)cc2)cc1", "note": "(centres undefined)", "activity change, negative = inhibition": "inconclusive: 0.446%"},
      {"smiles": "COc1cccc(/C=C/C(=O)N(C)CC(=O)Nc2ccc(Cl)c(C(F)(F)F)c2)c1", "Potency": "inconclusive: 32.6 µM [falling, partial curve, poor fit]"},
      {"smiles": "COc1ccc(Nc2nc(C(F)(F)F)nc(C)c2C#N)cc1", "activity change, negative = inhibition": "inconclusive: 17.1%"},
      {"smiles": "Cc1ccc(NC(=O)Nc2cccnc2)cc1NC(=O)Nc1cccnc1", "activity change, negative = inhibition": "inconclusive: 10.3%"},
      {"smiles": "Cc1ccc(O)c(-c2cc(C(=O)Nc3ccc(S(=O)(=O)Nc4nc(C)cc(C)n4)cc3)[nH]n2)c1", "Potency": "inconclusive: 10.3 µM [falling, partial curve]"},
      {"smiles": "Clc1ccc(CNc2cnccn2)cc1", "activity change, negative = inhibition": "inactive: -2.48%"},
      {"smiles": "Cc1ccc(NC(=O)c2nnn(-c3cc(C)cc(C)c3)c2N)cc1", "activity change, negative = inhibition": "inconclusive: -8.61%"},
      {"smiles": "O=C(CCC(=O)OCc1ccc(Cl)cc1)Nc1cccc([N+](=O)[O-])c1", "activity change, negative = inhibition": "inconclusive: -0.0958%"},
      {"smiles": "Cn1c(N)c(C(=O)COC(=O)c2ccc([N+](=O)[O-])o2)c(=O)n(C)c1=O", "activity change, negative = inhibition": "inconclusive: 6.5%"},
      {"smiles": "c1ccc(-n2nnc3cnccc32)cc1", "Potency": "inconclusive: 12.6 µM [falling, partial curve]"},
      {"smiles": "COc1ccc(NC(=O)CN(C)C(=O)CCCN2C(=O)c3cccc4cccc(c34)C2=O)cc1", "Potency": "inconclusive: 4.61 µM [rising, full curve]"},
      {"smiles": "CCCCN(C)CCNC(=O)c1cc(-c2cccnc2)nc2ccc(S(=O)(=O)N3CCC(C)CC3)cc12", "activity change, negative = inhibition": "inconclusive: 8.7% and inconclusive: 3.93%"},
      {"smiles": "CCOc1ccccc1NC(=O)CN1CCC(NC(=O)c2ccccc2)CC1", "activity change, negative = inhibition": "inconclusive: -8.89%"}
    ]}
  ]
}
